Data taken from patent US20240336679A1, “METHODS FOR THE TREATMENT OF CANCER” (INSTITUT REGIONAL DU CANCER DE MONTPELLIER, priority 2021, published 2024).
At least one structure is not confirmed: it was looked up by name or label, or the drawing left a doubt.

Tested on: cancer cells exhibiting recruitment of MDM2 to chromatin (C-MDM2 (+))
Assay: Cell viability / IC50 measurement (SRB assay) upon SP141 treatment
Assay type: cell-based, human
Conditions: FIG. 8; 72 hours, increasing concentrations; SKMEL5, IB115, IB111 vs MCF7, ZR751, HPAC
Description: Cell survival after SP141, IL-6, IL-6 inhibitor and/or serine/glycine deprived diet treatment (IC50) was determined using the Sulforhodamine B assay (SRB assay). Cells were seeded in 96-well plates (Sarsted) in complete DMEM medium as to obtain triplicates for each conditions (5 000 cells/well). After 24 h, serial dilutions of the indicated compounds were added to the cells. […] Fixed SRB was finally dissolved in 10 mM Tris-HCl solution and 560 nm absorbance was read using a PHERAstar FSX plate reader.

## COc1ccc2[nH]c3c(-c4cccc5ccccc45)nccc3c2c1 [SP141]
  Mean IC50 on C-MDM2(+) versus C-MDM2(−) cancer cell lines (cell death): more efficient in inducing cell death
